From the supplement of paper PMC8728848
This is one part of the list.

Tests used:
Assay in all cases: glycan array binding signal (z-score within array); higher = stronger binding
Settings in all cases: glycan notation: IUPAC condensed, linker removed
Gal6S(b1-4)Glc6S = target: Gal6S(b1-4)Glc6S
Outline: (§1)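 Negative Z-scores can be read as non-binding. The Z-score is calculated within each array and then averaged across arrays of one protein sequence at different concentrations or buffers and across linkers. Arrays, 3228 in all, were curated from the Consortium for Functional Glycomics database and kept only where the protein sequence was available.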

Gal6S(b1-4)GlcNAc = target: Gal6S(b1-4)GlcNAc
Outline: as §1

GalNAc(a1-3)Gal = target: GalNAc(a1-3)Gal
Outline: as §1

GalNAc(a1-3)GalNAc = target: GalNAc(a1-3)GalNAc
Outline: as §1

[1] = target: GalNAc(b1-3)Gal(a1-4)Gal(b1-4)GlcNAc
Outline: as §1

GalNAc(b1-4)GlcNAc = target: GalNAc(b1-4)GlcNAc
Outline: as §1

Glc(a1-4)Glc = target: Glc(a1-4)Glc
Outline: as §1

Glc(a1-6)Glc(a1-6)Glc = target: Glc(a1-6)Glc(a1-6)Glc
Outline: as §1

Glc(b1-4)Glc = target: Glc(b1-4)Glc
Outline: as §1

Glc(b1-6)Glc = target: Glc(b1-6)Glc
Outline: as §1

GlcA(b1-3)Gal = target: GlcA(b1-3)Gal
Outline: as §1

GlcA(b1-6)Gal = target: GlcA(b1-6)Gal
Outline: as §1

[2] = target: GlcNAc(a1-3)Gal(b1-4)GlcNAc
Outline: as §1

[3] = target: GlcNAc(a1-6)Gal(b1-4)GlcNAc
Outline: as §1

[4] = target: GlcNAc(b1-2)Gal(b1-3)GlcNAc
Outline: as §1

[5] = target: GlcNAc(b1-2)Man(a1-3)[GlcNAc(b1-2)Man(a1-6)]Man(b1-4)GlcNAc(b1-4)GlcNAc
Outline: as §1

GlcNAc(b1-3)Gal = target: GlcNAc(b1-3)Gal
Outline: as §1

[6] = target: GlcNAc(b1-3)Gal(b1-3)GalNAc
Outline: as §1

GlcNAc(b1-3)Gal(b1-4)Glc = target: GlcNAc(b1-3)Gal(b1-4)Glc
Outline: as §1

[7] = target: GlcNAc(b1-3)Gal(b1-4)GlcNAc
Outline: as §1

[8] = target: GlcNAc(b1-3)Gal(b1-4)GlcNAc(b1-3)Gal(b1-4)GlcNAc
Outline: as §1

GlcNAc(b1-3)GalNAc = target: GlcNAc(b1-3)GalNAc
Outline: as §1

[9] = target: GlcNAc(b1-3)[GlcNAc(b1-4)][GlcNAc(b1-6)]GlcNAc
Outline: as §1

[10] = target: GlcNAc(b1-3)[GlcNAc(b1-6)]Gal(b1-4)GlcNAc
Outline: as §1

[11] = target: GlcNAc(b1-3)[GlcNAc(b1-6)]GlcNAc
Outline: as §1

[12] = target: GlcNAc(b1-4)Gal(b1-4)GlcNAc
Outline: as §1

[13] = target: GlcNAc(b1-4)GlcNAc(b1-4)GlcNAc
Outline: as §1

[14] = target: GlcNAc(b1-4)GlcNAc(b1-4)GlcNAc(b1-4)GlcNAc(b1-4)GlcNAc
Outline: as §1

[15] = target: GlcNAc(b1-4)GlcNAc(b1-4)GlcNAc(b1-4)GlcNAc(b1-4)GlcNAc(b1-4)GlcNAc
Outline: as §1

[16] = target: GlcNAc(b1-4)[GlcNAc(b1-6)]GalNAc
Outline: as §1

[17] = target: GlcNAc(b1-6)Gal(b1-4)GlcNAc
Outline: as §1

GlcNAc(b1-6)GalNAc = target: GlcNAc(b1-6)GalNAc
Outline: as §1

Kdn(a2-3)Gal(b1-3)GlcNAc = target: Kdn(a2-3)Gal(b1-3)GlcNAc
Outline: as §1

Kdn(a2-3)Gal(b1-4)GlcNAc = target: Kdn(a2-3)Gal(b1-4)GlcNAc
Outline: as §1

[18] = target: Man(a1-2)Man(a1-2)Man(a1-3)Man
Outline: as §1

[19] = target: Man(a1-2)Man(a1-2)Man(a1-3)[Man(a1-2)Man(a1-3)[Man(a1-2)Man(a1-6)]Man(a1-6)]Man(b1-4)GlcNAc(b1-4)GlcNAc
Outline: as §1

[20] = target: Man(a1-2)Man(a1-2)Man(a1-3)[Man(a1-2)Man(a1-6)[Man(a1-3)]Man(a1-6)]Man(b1-4)GlcNAc(b1-4)GlcNAc
Outline: as §1

B1: FBG2 (Homo sapiens), Q9NRD1 (protein)
chain: MDAPHSKAALDSINELPENILLELFTHVPARQLLLNCRLVCSLWRDLIDLMTLWKRKCLREGFITKDWDQPVADWKIFYFLRSLHRNLLRNPCAEEDMFAWQIDFNGGDRWKVESLPGAHGTDFPDPKVKKYFVTSYEMCLKSQLVDLVAEGYWEELLDTFRPDIVVKDWFAARADCGCTYQLKVQLASADYFVLASFEPPPVTIQQWNNATWTEVSYTFSDYPRGVRYILFQHGGRDTQYWAGWYGPRVTNSSIVVSPKMTRNQASSEAQPGQKHGQEEAAQSPYRAVVQIFPPPVTIQQWNNATWTEVSYTFSDYPRGVRYILFQHGGRDTQYWAGWYGPRVTNSSIVVSPKMTRNQASSEAQPGQKHGQEEAAQSPYRAVVQI
glycan array binding signal (z-score) (Gal6S(b1-4)Glc6S): 2.67 | glycan array binding signal (z-score) (Gal6S(b1-4)GlcNAc): 1.2 | glycan array binding signal (z-score) (GalNAc(a1-3)Gal): -0.783 | glycan array binding signal (z-score) (GalNAc(a1-3)GalNAc): -0.565 | glycan array binding signal (z-score) [1]: -0.357 | glycan array binding signal (z-score) (GalNAc(b1-4)GlcNAc): -0.387 | glycan array binding signal (z-score) (Glc(a1-4)Glc): -0.594 | glycan array binding signal (z-score) (Glc(a1-6)Glc(a1-6)Glc): -0.091 | glycan array binding signal (z-score) (Glc(b1-4)Glc): -0.116 | glycan array binding signal (z-score) (Glc(b1-6)Glc): -0.213 | glycan array binding signal (z-score) (GlcA(b1-3)Gal): 0.042 | glycan array binding signal (z-score) (GlcA(b1-6)Gal): 0.055 | glycan array binding signal (z-score) [2]: -0.575 | glycan array binding signal (z-score) [3]: -0.895 | glycan array binding signal (z-score) [4]: -0.723 | glycan array binding signal (z-score) [5]: 0.654 | glycan array binding signal (z-score) (GlcNAc(b1-3)Gal): -0.443 | glycan array binding signal (z-score) [6]: -0.57 | glycan array binding signal (z-score) (GlcNAc(b1-3)Gal(b1-4)Glc): -0.564 | glycan array binding signal (z-score) [7]: -0.035 | glycan array binding signal (z-score) [8]: 0.244 | glycan array binding signal (z-score) (GlcNAc(b1-3)GalNAc): -0.923 | glycan array binding signal (z-score) [9]: 0.103 | glycan array binding signal (z-score) [10]: -0.229 | glycan array binding signal (z-score) [11]: -0.406 | glycan array binding signal (z-score) [12]: -0.843 | glycan array binding signal (z-score) [13]: -0.555 | glycan array binding signal (z-score) [14]: 0.601 | glycan array binding signal (z-score) [15]: 0.185 | glycan array binding signal (z-score) [16]: -0.787 | glycan array binding signal (z-score) [17]: -0.91 | glycan array binding signal (z-score) (GlcNAc(b1-6)GalNAc): -0.884 | glycan array binding signal (z-score) (Kdn(a2-3)Gal(b1-3)GlcNAc): -0.553 | glycan array binding signal (z-score) (Kdn(a2-3)Gal(b1-4)GlcNAc): -0.424 | glycan array binding signal (z-score) [18]: -0.639 | glycan array binding signal (z-score) [19]: 3.27 | glycan array binding signal (z-score) [20]: 3.69
